From the supplement of paper PMC12009310
Structures can show the parent of a compound that is named as a salt. ± gives the standard deviation of the averaged measurements. This is one part of the list. Baselines shift from plate to plate; read single values as rough.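 The cells are a mouse kidney inner medullary collecting duct line, silenced either for the ciliary gene Rpgrip1l or with a non-targeting control siRNA.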

test system: mIMCD3; assay: robust z score of cilia incidence (% cells with single cilium) vs plate controls; higher = more ciliated cells; conditions: 10 µM; 48 h; siRNA: siScr

Structure (SMILES) | robust z score of cilia incidence
O=C1CCC(N2C(=O)c3ccccc3C2=O)C(=O)N1 (stereo unspecified) [Thalidomide] | 1.5 ± 3.3
NC(C(=O)O)c1cc(O)cc(O)c1 (racemic) | 1.69 ± 2.7
Oc1cc2c(cc1O)C(c1ccccc1)CNCC2 (stereo unspecified) | -0.905 ± 0.37
CCCCCCCCCCCCCCCCn1cc[n+](Cc2ccccc2)c1C | -21.2 ± 13
Nc1c(Br)cc(Br)cc1CN[C@H]1CC[C@H](O)CC1 [Ambroxol hydrochloride] | -12.5 ± 10
O=C1C(Cl)=C(NCCN2CCOCC2)C(=O)c2ncccc21 | -95.7 ± 49
CCCC[P+](CCCC)(CCCC)Cc1ccc(NC(=O)C(Cc2ccc3ccccc3c2)NC(=NC2CCCCC2)NC2CCCCC2)cc1 (stereo unspecified) | -16.7 ± 9.9
Cc1ccc([N+](=O)[O-])cc1S(=O)(=O)N(C)C | -2.34 ± 4.1
COC(=O)c1c(C)[nH]c(C)c1C(=O)c1ccccc1Cc1ccccc1 | -0.511 ± 1.1
CC(C)N(CCC(=O)c1ccc2ccccc2c1)Cc1ccccc1 | -31.5 ± 22
CCCCn1c(=O)c2[nH]c(C34CC5CC(CC3C5)C4)nc2n(CCCO)c1=O | -16.7 ± 3.2
CCN(CC)CC1CCCCN1CC(=O)N1c2ccccc2C(=O)Nc2cccnc21 (stereo unspecified) | 1.33 ± 1.1
NC(=O)N1C(=O)/C(=C(\O)c2cccs2)c2cc(Cl)ccc21 [Tenidap] | -14.2 ± 7.4
CCCn1c(=O)c2[nH]c(-c3ccccc3)nc2n(CCC)c1=O [1,3-Dipropyl-8-phenylxanthine] | -2.45 ± 3.2
COc1ccccc1OCCNCC(O)COc1cccc2[nH]c3ccccc3c12 (stereo unspecified) [Carvedilol] | -22.5 ± 9.8
COc1cc2c(Nc3ccc(NC(=O)c4ccccc4)cc3)ncnc2cc1OCCCN1CCOCC1 | -48.6 ± 39

Already shown: entries from further up.
Structure (SMILES) | robust z score of cilia incidence
COC(=O)c1c(C)[nH]c(C)c1C(=O)c1ccccc1Cc1ccccc1 | -0.511 ± 1.1
CC(C)N(CCC(=O)c1ccc2ccccc2c1)Cc1ccccc1 | -31.5 ± 22
